T1: human myostatin (human) (UniProt O14793)
T1 sequence (biotinylated in selections and radioactive assays (site not stated), looked up): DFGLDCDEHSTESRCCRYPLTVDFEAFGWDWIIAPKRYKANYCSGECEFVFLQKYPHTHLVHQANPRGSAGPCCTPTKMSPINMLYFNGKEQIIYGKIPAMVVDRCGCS

Amino acid sequences for entries named in this document (tags omitted). Residues count along the entry.
UniProt P01138, residues 122-241: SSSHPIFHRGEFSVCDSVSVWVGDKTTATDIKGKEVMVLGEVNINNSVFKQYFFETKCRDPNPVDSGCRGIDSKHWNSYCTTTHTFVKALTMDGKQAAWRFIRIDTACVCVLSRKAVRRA

B1: M1-1, E. coli-produced (designed binder)
chain: MTIPEIIIKVRGTQVVGSDMTVIVEFTNPLKETLRNVWVHLDGPGVTRPMKKMFPAIPMNHKVQWEEVVRPWVSGHRKLIASMPQLFHIHVYGELDVQIQRRHHHHHH
B2: M17, E. coli-produced (designed binder)
chain: MTIPEIIIKVRGTQVVGSDMTVIVEFTNPFKETLRSVWVHLDGPGVTRPMKKMFREIPPKTTVQWEEVVRPWVSGHRKLIASMRTQYLIHLYGELDVQIQRRHHHHHH
B3: M29, E. coli-produced (designed binder)
chain: MTIPEIIIKVRGTQVVGSDMTVIVEFTNPFKETLRSVWVHLDGPGVTRPMKKMFREIPPKTTVQWEEVVRPWVSGHRKLIARCSLSPWHVYGELDVQIQRRHHHHHH
B4: 39908-H10 (designed binder)
chain: MTIPEIIIKVRGTQVVGSDMTVIVEFTNPFKETLRSVWVHLDGPGVTRPMKKMFREIPPKTTVQWEEVVRPWVSGHRKLIASMPSLLHLHVYGELDVQIQRRDYKDDDDK
B5: 39633-D2 (designed binder)
chain: B4 chain with P29L, F30M, S36N, R55S, P58R, K60N, T61S
B6: 39908-G12 (designed binder)
chain: B4 chain with R55S, P58R, K60N, T61S
B7: 39908-G4 (designed binder)
chain: B4 chain with T27S, S36N, R55S, P58R, K60N, T61S
B8: 39973-F10 (designed binder)
chain: B4 chain with F30L, S36N, R55A, E56T, K60Y, T61L, T62P, S85Q, L87I
B9: 39885-A1 (designed binder)
chain: MTIPEIIIKVRGTQVVGSDMTVIVEFTNPLKETLRNVWVHLDGPGVTRPMKKMFPAIPMNHKVQWEEVVRPWVSGHRKLIASMPQLFHIHVYGELDVQIQRRDYKDDDDK
B10: 39885-C11 (designed binder)
chain: B9 chain with P84I, Q85N, L86Y, H88Y, I89K
B11: 39973-C10 (designed binder)
chain: B9 chain with A56T, P58S, M59R, N60F, H61K, K62R, F87Q, I89L
B12: 61363-H1 (V15A) (designed binder)
chain: MTIPEIIIKVRGTQAVGSDMTVIVEFTNPLKETLYNVWVHLDGPGVTRPMKKMFWEIRTNHPVQWEEVVRPWVSGHRKLIASMSSNSRDHVYGELDVQIQRRDYKDDDDK
B13: 61363-C12 (G45E) (designed binder)
chain: MTIPEIIIKVRGTQVVGSDMTVIVEFTNPLEENLYNVWVHLDGPEVTRPMKKMFYQISTNIPVQWEEVVRPWVSGHRKLIASMGAHTKDHVYGELDVQIQRRDYKDDDDK
B14: 61362-C6 (designed binder)
chain: MTIPEIIIKVRGTQVVGSDMTVIVEFTNPLNEPLLFVWVHLDGPGVTRPMKKMFRIISPHATVQWEEVVRPWVSGHRKLIASMSIGFQAHVYGELDVQIQRRDYKDDDDK
B15: 61362-F2 (designed binder)
chain: MTIPEIIIKVRGTQVVGSDMTVIVEFINTSNETLPSVWVHLDGPGVTRPMKKMFPEIPPNSSVQWEAWVSGHRKLIASMIRDSSRHVYGELDVQIQRRDYKDDDDK
B16: 39908-E1 (designed binder)
chain: MTIPEIIIKVRGTQVVGSDMTVIVEFTNLWKEALRNVWMHLDGPGVTRPMKKMFREIATMSTVQWEEVVRPWVSGHRKLIASMTLRPWHVYGELDVQIQRRDYKDDDDK
B17: 39633-D6 (designed binder)
chain: MTIPEIIIKVRGTQVVGSDMTVIVEFTNPFKETLRNVWVHLDGPGVTRPMKKMFCEIRPNSIVQWEEVVRPWVSGHRKLIARCSLSPWHVYGELDVQIQRRDYKDDDDK
B18: 39908-B2 (designed binder)
chain: B17 chain with N36S, C55R, R58P, N60K, S61T, I62T, S84Q, S86L
B19: 39908-E5 (designed binder)
chain: B17 chain with T27S, C55S, I62T
B20: 39633-G6 (designed binder)
chain: B16 chain with L29P, W30F, A33T, N36S, M39V, A58P, T59P, M60K, S61T
B21: 39908-D2 (designed binder)
chain: B17 chain with N36S, C55R, R58P, N60K, S61T, I62T
B22: 39633-G1 (designed binder)
chain: B4 chain with T27S, S36N, P84R, S85T, L86Q, L87Y, H88L, L89I, V91L
B23: 39633-C1 (designed binder)
chain: B4 chain with P84R, S85T, L86Q, L87Y, H88L, L89I, V91L
B24: 39633-G5 (designed binder)
chain: MTIPEIIIKVRGTQVVGSDMTVIVEFTNPFKETLRSVWVHLDGPGVTRPMKKMFSEIRPNSTVQWEEVVRPWVSGHRKLIASMRTQYLIHLYGELDVQIQRRDYKDDDDK
B25: 39633-B3 (designed binder)
chain: B24 chain with F30L, K31S, E32Q, R35S, S36A, S55R, R58P, N60K, S61T

Positions count from the first letter of the chain named. Names may count otherwise. These are yes or no findings as the source states them, for the method shown. Some binding calls cover weakened binding; strength is not graded here.

In the first test the target is T1, human myostatin (human). Description: competition in radioactive equilibrium binding assay: labelled in vitro binder 0.1 pmol, myostatin 2 pmol, E. coli-produced protein 50 pmol.
Regarding B1, the binding entry is listed as “binds”.

For B2, the binding result is “binds”.

Turning to B3, the binding entry is on record as “binds”.

The target in the next test is T1, human myostatin (human). Description: radioactive equilibrium binding assay: 35S-labelled in vitro protein, biotinylated myostatin 0-100 nM, capture on M-280 beads [panel Group M2-A50].
Take B4: the binding result is “binds”.

On to B5, for which the binding result is “binds”.

B6: the binding entry is recorded as “binds”.

In the case of B7, the binding result is recorded as “binds”.

The next test addresses T1, human myostatin (human). Description: radioactive equilibrium binding assay: 35S-labelled in vitro protein, biotinylated myostatin 0-100 nM, capture on M-280 beads [panel Groups M1,2,3-A].
Take B8: the binding result was “binds”.

For B9, the binding result is “binds”.

B10: the binding result is listed as “binds”.

On to B11, for which the binding entry was “binds”.

For the next test, the target named is human β-NGF (human) (UniProt P01138). Description: radioactive equilibrium binding assay: 35S-labelled in vitro protein, biotinylated β-NGF 0-50 nM, capture on M-280 beads.
Turning to B12, the binding result is reported as “binds”.

As to B13, the binding result was “binds”.

Regarding B14, the binding result is on record as “binds”.

In the case of B15, the binding result was “binds”.

Another test deals with T1, human myostatin (human). Description: radioactive equilibrium binding assay: 35S-labelled in vitro protein, biotinylated myostatin 0-100 nM, capture on M-280 beads [panel Group M3-A50].
Take B16: the binding entry was “binds”.

As to B17, the binding result is “binds”.

B18: the binding result was “binds”.

Consider B19, for which the binding result was “binds”.

For B20, the binding result is “binds”.

Take B21: the binding result is “binds”.

For the next test, the target named is T1, human myostatin (human). Description: radioactive equilibrium binding, competitor at 500 nM.
Regarding B1, the binding result is reported as “binds”.

Consider B2, for which the binding entry is recorded as “binds”.

For the molecule B3, the binding entry is on record as “binds”.

Another test addresses T1, human myostatin (human). Description: radioactive equilibrium binding assay: 35S-labelled in vitro protein, biotinylated myostatin 0-100 nM, capture on M-280 beads [panel Group M1-A50].
Consider B22, for which the binding result is on record as “binds”.

For the molecule B23, the binding result is recorded as “binds”.

Consider B24, for which the binding entry is “binds”.

Consider B25, for which the binding result is on record as “binds”.
